Data source: PubChem BioAssay AID1224828 (NIAID, 2016)

Screen: 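Find genes required for NF-kappaB p65 moving into the nucleus after LPS in mouse macrophages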 (primary screen)
System: mouse RAW264.7 G9 macrophage reporter cells (GFP-p65, Tnf promoter-mCherry)
Reagent: siRNA pool against mouse genes, 100 nM
Time to read-out: 2 days siRNA transfection, then 40 min LPS before fixation
Conditions: LPS (Salmonella minnesota R595) at 10 ng/ml
Measurement: 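Microscopy ratio of nuclear to perinuclear-ring GFP-p65 signal, scaled to the plate median; gene score is the average of two replicate robust z-scores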
Direction: p65 translocation robust z-score: higher = more nuclear NF-kappaB p65 after LPS than the plate median; nuclear/cytoplasmic p65 ratio: higher = more nuclear NF-kappaB p65
Active means: 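Active if robust z is above 3.3 (negative regulators) or below -1.56, the Tlr4 control median (positive regulators); activity score 50 or more; control wells not called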
Meaning of the calls: active = hit (p65 shift raised or lowered); inactive = no clear change
Shown is a random part of about 17,000 reagents. 762 of them (4.5%) were called active. 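Active calls include both raised and lowered p65 entry, mostly lowered; wells with fewer than 50 cells lack a z-score.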 The raw values are shown without normalisation.

target | p65 translocation robust z-score | nuclear/cytoplasmic p65 ratio, rep 1 | nuclear/cytoplasmic p65 ratio, rep 2 | low cell count flag | call
Armcx1 | 0.03 | 1.61 | 1.51 | enough cells to score | inactive
Fads2 | – | 1.23 | 1.14 | fewer than 50 cells per well; well left out of scoring | inactive
Mef2c | – | 1.27 | 1.14 | fewer than 50 cells per well; well left out of scoring | inactive
Plekha5 | -1.16 | 1.42 | 1.46 | enough cells to score | inactive
Dnm2 | -0.29 | 1.42 | 1.09 | enough cells to score | inactive
Naip2 | 1.29 | 1.63 | 1.68 | enough cells to score | inactive
Drd5 | – | 1.47 | 1.8 | fewer than 50 cells per well; well left out of scoring | inactive
Or10d5 | 2.1 | 1.72 | 1.2 | enough cells to score | inactive
Or2a5 | -0.15 | 1.4 | 1.42 | enough cells to score | inactive
Ptpn13 | -0.41 | 1.38 | 1.41 | enough cells to score | inactive
Dnajc9 | -0.31 | 1.4 | 1.34 | enough cells to score | inactive
Cyp11b2 | -0.25 | 1.43 | 1.36 | enough cells to score | inactive
Syp | 0.73 | 1.46 | 1.33 | enough cells to score | inactive

4 consecutive entries from above, quoted:
target | p65 translocation robust z-score | nuclear/cytoplasmic p65 ratio, rep 1 | nuclear/cytoplasmic p65 ratio, rep 2 | low cell count flag | call
Naip2 | 1.29 | 1.63 | 1.68 | enough cells to score | inactive
Drd5 | – | 1.47 | 1.8 | fewer than 50 cells per well; well left out of scoring | inactive
Or10d5 | 2.1 | 1.72 | 1.2 | enough cells to score | inactive
Or2a5 | -0.15 | 1.4 | 1.42 | enough cells to score | inactive

Next entries follow:
target | p65 translocation robust z-score | nuclear/cytoplasmic p65 ratio, rep 1 | nuclear/cytoplasmic p65 ratio, rep 2 | low cell count flag | call
Emb | – | 1.12 | 1.4 | fewer than 50 cells per well; well left out of scoring | inactive
Chd2 | 1.21 | 1.63 | 1.53 | enough cells to score | inactive
Alas1 | -0.43 | 1.41 | 1.75 | enough cells to score | inactive
Il3 | – | 1.25 | 0 | fewer than 50 cells per well; well left out of scoring | inactive
Fxyd3 | 1.21 | 1.78 | 1.62 | enough cells to score | inactive
Artn | -0.83 | 1.43 | 1.44 | enough cells to score | inactive
Moxd2 | 0.16 | 1.45 | 1.72 | enough cells to score | inactive
Psg18 | 1.35 | 1.52 | 1.39 | enough cells to score | inactive
Bmp4 | -0.42 | 1.58 | 1.52 | enough cells to score | inactive
Ooep | – | 1.48 | 1.43 | fewer than 50 cells per well; well left out of scoring | inactive
Sh2d4b | 0.24 | 1.68 | 1.74 | enough cells to score | inactive
Klhl5 | 0.54 | 1.62 | 1.51 | enough cells to score | inactive
Or5a3 | 1.93 | 1.91 | 1.66 | enough cells to score | inactive
Csf2 | 0.49 | 1.51 | 1.47 | enough cells to score | inactive
Hspb7 | -0.64 | 1.32 | 1.32 | enough cells to score | inactive
Prkd3 | -0.08 | 1.68 | 1.36 | enough cells to score | inactive
Zfp82 | 0.66 | 1.61 | 1.23 | enough cells to score | inactive
Ppm1b | -0.69 | 1.43 | 1.3 | enough cells to score | inactive
Or51v14 | -0.14 | 1.5 | 1.19 | enough cells to score | inactive
Gjb5 | -0.08 | 1.38 | 1.4 | enough cells to score | inactive
Gck | -0.7 | 1.64 | 1.24 | enough cells to score | inactive
Sec24b | 0.54 | 1.63 | 1.82 | enough cells to score | inactive
Tfcp2l1 | 2.15 | 1.74 | 1.43 | enough cells to score | inactive
Or5al6 | 0.08 | 1.7 | 1.56 | enough cells to score | inactive
Rab35 | -1.35 | 1.44 | 1.39 | enough cells to score | inactive
Grin2d | -0.85 | 1.24 | 1.34 | enough cells to score | inactive
Xcl1 | 0.02 | 1.59 | 1.43 | enough cells to score | inactive
